Results are given in words; binding and its absence hold for the method and conditions named. For some of these results: In cells and extracts the contact can be indirect. Some entries that bind do so weakly or less than the wild type. For some of these results: Where a sequence is shown, tags or fusion partners need not be part of it.

Common to all, as to conditions: remark: other sources report otherwise
In test [1] the target is T1, cSFB-tagged RBPJ (recombination signal-binding protein of immunoglobulin kappa J region with C-terminal SFB tag), Q06330. In words: co-IP and kinetic analysis with purified proteins.
The target in test [2] is RBPJ, endogenous in HEK293T cells, Q06330. In words: co-IP from HEK293T lysates with antibodies against endogenous FBXO42 or RBPJ, western blot. For orientation: Immunoblotting shows a protein as a band on a membrane.
In test [3] the target is T1, cSFB-tagged RBPJ (recombination …). Put plainly: TAP-MS with cSFB-RBPJ as the bait in HEK293T cells.
Test [4] has the same target. In words: co-IP of Myc-tagged FBXO42 and cSFB-tagged RBPJ in HEK293T cells (S beads or anti-MYC antibody), western blot.

B1: FLAG-FBXO42 protein purified from 293F cells, Q6P3S6 1-717 (protein, UniProt Q6P3S6 1-717, looked up, not shown: small tags and cut ends)
chain: MASSSDSEDDSFMAVDQEETVLEGTMDQDEEPHPVLEAEETRHNRSMSELPEEVLEYILSFLSPYQEHKTAALVCKQWYRLIKGVAHQCYHGFMKAVQEGNIQWESRTYPYPGTPITQRFSHSACYYDANQSMYVFGGCTQSSCNAAFNDLWRLDLNSKEWIRPLASGSYPSPKAGATLVVYKDLLVLFGGWTRPSPYPLHQPERFFDEIHTYSPSKNWWNCIVTTHGPPPMAGHSSCVIDDKMIVFGGSLGSRQMSNDVWVLDLEQWAWSKPNISGPSPHPRGGQSQIVIDDATILILGGCGGPNALFKDAWLLHMHSGPWAWQPLKVENEEHGAPELWCHPACRVGQCVVVFSQAPSGRAPLSPSLNSRPSPISATPPALVPETREYRSQSPVRSMDEAPCVNGRWGTLRPRAQRQTPSGSREGSLSPARGDGSPILNGGSLSPGTAAVGGSSLDSPVQAISPSTPSAPEGYDLKIGLSLAPRRGSLPDQKDLRLGSIDLNWDLKPASSSNPMDGMDNRTVGGSMRHPPEQTNGVHTPPHVASALAGAVSPGALRRSLEAIKAMSSKGPSASAALSPPLGSSPGSPGSQSLSSGETVPIPRPGPAQGDGHSLPPIARRLGHHPPQSLNVGKPLYQSMNCKPMQMYVLDIKDTKEKGRVKWKVFNSSSVVGPPETSLHTVVQGRGELIIFGGLMDKKQNVKYYPKTNALYFVRAKR
B1: the binding entry in test [1] is on record as “binds”.

B2: FBXO42, endogenous in HEK293T cells, Q6P3S6 1-717 (protein, UniProt Q6P3S6 1-717, looked up)
chain: MASSSDSEDDSFMAVDQEETVLEGTMDQDEEPHPVLEAEETRHNRSMSELPEEVLEYILSFLSPYQEHKTAALVCKQWYRLIKGVAHQCYHGFMKAVQEGNIQWESRTYPYPGTPITQRFSHSACYYDANQSMYVFGGCTQSSCNAAFNDLWRLDLNSKEWIRPLASGSYPSPKAGATLVVYKDLLVLFGGWTRPSPYPLHQPERFFDEIHTYSPSKNWWNCIVTTHGPPPMAGHSSCVIDDKMIVFGGSLGSRQMSNDVWVLDLEQWAWSKPNISGPSPHPRGGQSQIVIDDATILILGGCGGPNALFKDAWLLHMHSGPWAWQPLKVENEEHGAPELWCHPACRVGQCVVVFSQAPSGRAPLSPSLNSRPSPISATPPALVPETREYRSQSPVRSMDEAPCVNGRWGTLRPRAQRQTPSGSREGSLSPARGDGSPILNGGSLSPGTAAVGGSSLDSPVQAISPSTPSAPEGYDLKIGLSLAPRRGSLPDQKDLRLGSIDLNWDLKPASSSNPMDGMDNRTVGGSMRHPPEQTNGVHTPPHVASALAGAVSPGALRRSLEAIKAMSSKGPSASAALSPPLGSSPGSPGSQSLSSGETVPIPRPGPAQGDGHSLPPIARRLGHHPPQSLNVGKPLYQSMNCKPMQMYVLDIKDTKEKGRVKWKVFNSSSVVGPPETSLHTVVQGRGELIIFGGLMDKKQNVKYYPKTNALYFVRAKR
For B2, the binding result in test [2] and in test [3] was “binds” throughout.

B3: Myc-tagged FBXO42, Q6P3S6 1-717 (protein, UniProt Q6P3S6 1-717, looked up, not shown: small tags and cut ends)
chain: MASSSDSEDDSFMAVDQEETVLEGTMDQDEEPHPVLEAEETRHNRSMSELPEEVLEYILSFLSPYQEHKTAALVCKQWYRLIKGVAHQCYHGFMKAVQEGNIQWESRTYPYPGTPITQRFSHSACYYDANQSMYVFGGCTQSSCNAAFNDLWRLDLNSKEWIRPLASGSYPSPKAGATLVVYKDLLVLFGGWTRPSPYPLHQPERFFDEIHTYSPSKNWWNCIVTTHGPPPMAGHSSCVIDDKMIVFGGSLGSRQMSNDVWVLDLEQWAWSKPNISGPSPHPRGGQSQIVIDDATILILGGCGGPNALFKDAWLLHMHSGPWAWQPLKVENEEHGAPELWCHPACRVGQCVVVFSQAPSGRAPLSPSLNSRPSPISATPPALVPETREYRSQSPVRSMDEAPCVNGRWGTLRPRAQRQTPSGSREGSLSPARGDGSPILNGGSLSPGTAAVGGSSLDSPVQAISPSTPSAPEGYDLKIGLSLAPRRGSLPDQKDLRLGSIDLNWDLKPASSSNPMDGMDNRTVGGSMRHPPEQTNGVHTPPHVASALAGAVSPGALRRSLEAIKAMSSKGPSASAALSPPLGSSPGSPGSQSLSSGETVPIPRPGPAQGDGHSLPPIARRLGHHPPQSLNVGKPLYQSMNCKPMQMYVLDIKDTKEKGRVKWKVFNSSSVVGPPETSLHTVVQGRGELIIFGGLMDKKQNVKYYPKTNALYFVRAKR
With B3, the binding entry in test [4] is given as “binds”.

For the origin of these results see patent US20260023068A1, “USE OF A FBXO42 SPECIFIC INHIBITOR IN TREATING NOTCH SIGNALING-DEPENDENT DISEASE” (WESTLAKE UNIVERSITY, priority 2022, published 2026).
